{
  "sequences": {"note": "Chains of the proteins cited; added tags and fusions are not shown.", "UniProt P63158": "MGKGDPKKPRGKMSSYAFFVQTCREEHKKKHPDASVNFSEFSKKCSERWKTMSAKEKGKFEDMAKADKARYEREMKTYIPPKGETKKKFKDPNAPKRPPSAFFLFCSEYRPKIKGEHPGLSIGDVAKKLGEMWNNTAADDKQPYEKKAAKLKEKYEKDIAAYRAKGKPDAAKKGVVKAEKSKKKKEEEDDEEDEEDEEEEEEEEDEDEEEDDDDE"},
  "source": "paper PMC9368039",
  "target": "T1, nucleotide-binding oligomerization domain-containing 2 (NOD2) (mouse (endogenous in BV2)) (UniProt Q8K3Z0)",
  "T1 sequence": "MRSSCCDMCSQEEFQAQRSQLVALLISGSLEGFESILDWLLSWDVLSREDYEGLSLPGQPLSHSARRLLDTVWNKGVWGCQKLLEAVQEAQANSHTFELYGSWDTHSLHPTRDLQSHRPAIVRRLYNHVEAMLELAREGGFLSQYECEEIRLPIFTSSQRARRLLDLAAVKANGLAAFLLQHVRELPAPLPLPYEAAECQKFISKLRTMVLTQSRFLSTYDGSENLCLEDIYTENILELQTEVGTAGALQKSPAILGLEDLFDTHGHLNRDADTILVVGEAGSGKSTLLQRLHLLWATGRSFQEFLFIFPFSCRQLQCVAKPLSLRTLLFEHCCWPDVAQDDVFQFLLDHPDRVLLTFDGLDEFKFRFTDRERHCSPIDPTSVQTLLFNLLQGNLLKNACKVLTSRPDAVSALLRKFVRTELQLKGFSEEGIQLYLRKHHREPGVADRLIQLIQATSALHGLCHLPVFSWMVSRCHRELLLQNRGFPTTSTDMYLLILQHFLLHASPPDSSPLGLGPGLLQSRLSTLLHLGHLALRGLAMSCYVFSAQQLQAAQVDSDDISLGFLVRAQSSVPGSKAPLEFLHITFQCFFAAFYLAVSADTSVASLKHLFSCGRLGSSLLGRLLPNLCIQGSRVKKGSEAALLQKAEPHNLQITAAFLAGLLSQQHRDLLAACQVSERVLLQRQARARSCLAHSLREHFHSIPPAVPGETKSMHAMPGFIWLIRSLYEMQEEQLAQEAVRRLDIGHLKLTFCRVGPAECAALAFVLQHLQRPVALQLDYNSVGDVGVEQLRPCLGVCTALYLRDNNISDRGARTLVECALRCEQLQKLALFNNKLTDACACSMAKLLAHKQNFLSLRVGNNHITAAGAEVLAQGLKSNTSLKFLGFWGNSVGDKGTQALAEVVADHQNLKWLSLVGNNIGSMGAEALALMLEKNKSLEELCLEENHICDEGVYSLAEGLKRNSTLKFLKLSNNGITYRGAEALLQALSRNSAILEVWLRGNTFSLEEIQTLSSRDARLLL",
  "assay": "co-IP; lysates (0.5-1 mg total protein) of BV2 cells treated with LPS (100 ng/mL) for 3, 6, 9, 12 and 18 h; immunoprecipitated with anti-HMGB1 or anti-NOD2 at 4 °C overnight on protein A-Sepharose beads; immunoblot with anti-HMGB1, anti-NOD2 or anti-ATG16",
  "note": "No constants are given. Whether binding was seen depends on the method and setting. Binding seen in cells or lysates may run through a third protein. Some entries that bind do so weakly or less than the wild type.",
  "data": [
    {"substance": "high mobility group box 1 (HMGB1) (from UniProt P63158 1-215)", "values": [
      {"measurement": "binding", "value": "binds"}
    ]}
  ]
}
